PubChem BioAssay AID504444 (National Center for Advancing Translational Sciences (NCATS), 2011)
Hit rate of the full screen: of about 360,000 compounds, about 7,500 (2.1%) were called active. The shares of active, inactive and inconclusive entries below differ from those in the screen. Calls come from the whole dose curve; as a rule, active = well fitted inhibition curve with a large enough effect; inconclusive = small, poorly fitted or top-dose-only effect, or effect the other way; inactive = flat fitted curve, though single readings scatter. A potency beside an inconclusive call is a rough fit, not a confirmed value.

Test: Nrf2 qHTS screen for inhibitors; note: nearly all actives have a fitted effect of over 60% in size
Details: A549 ARE-Fluc reporter, luciferase luminescence, 18-24 h; series mostly up to 46 µM
Summary of the method: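 Concentration-response testing used A549 ARE_Fluc cells at 5000 cells/well. Following an 18-24 h compound incubation, viability was read by fluorescence (Ex 405/Em 525) and luciferase output by luminescence.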
Potency is the fitted concentration of half-maximal effect.

| Compound | Potency |
| --- | --- |
| COc1ccc(C(=O)O/N=C(/C(N)=O)P(=O)(OC(C)C)OC(C)C)cc1 | inconclusive: 16.4 µM [falling, single point] |
| O=C(c1cccn2c(=O)c3ccccc3nc12)N1CCC2(CC1)OCCO2 | inactive |
| CCC(c1ccc(C)cc1)N1C(=O)C2C3CCC(O3)C2C1=O (stereo not given) | inconclusive: 18.4 µM [falling, single point] |
| O=C(O)/C=C/c1cccc(B(O)O)c1 | inconclusive: 18.4 µM [activator, partial curve] |
| Cc1oc2cc3oc(=O)c(CCC(=O)N4CCCCC4)c(C)c3cc2c1C | inconclusive: 3.26 µM [activator, full curve, poor fit] |
| CNC(C)C#Cc1ccc2oc3cc(C)c(C)cc3c(=O)c2c1 (stereo not given) | inconclusive: 5.17 µM [activator, partial curve] |
| C[C@@H]1O[C@@H](O[C@H]2C[C@@H](O)[C@]3(CO)[C@@H]4C(CC[C@]3(O)C2)[C@@]2(O)CC[C@H](C3COC(=O)C3)[C@@]2(C)C[C@H]4O)[C@H](O)[C@H](O)[C@H]1O (stereo not given in full) | active: 0.206 µM |
| COc1ccc(-c2cc(=NCCC(=O)O)c3cc(C)ccc3o2)cc1 | inconclusive: 9.2 µM [activator, partial curve] |
| COc1ccccc1N1C(=O)NC(=O)/C(=C/c2ccc3c(c2)Cc2ccccc2-3)C1=O | inconclusive: 29.1 µM [activator, single point] |
| COc1ccc(Cn2c(=O)oc3ccc(C)cc32)cc1OC | inconclusive: 23.1 µM [falling, single point] |
| Cc1ccc2c(c1N)C(=O)c1ccccc1C2=O | inconclusive: 14.6 µM [activator, single point] |
| O=c1[nH]c(=O)n(Cc2ccc(F)cc2)c(O)c1/C=N/Nc1ccccc1 | inconclusive: 16.4 µM [falling, partial curve, poor fit] |
| COC(=O)C1=C(c2cc3ccccc3o2)C[C@@H]2CC[C@H]1N2C(=O)NCc1ccc(C(F)(F)F)cc1 | inconclusive: 29.1 µM [falling, single point] |
| Cc1occc1C(=O)Nc1nnc(C(F)(F)F)s1 | inconclusive: 32.6 µM [falling, single point] |
| CCCC1=Nc2cc(C(=O)NCCc3ccc(OC)cc3OC)ccc2Sc2ccccc21 | active: 18.4 µM |
| CN(Cc1ccccc1)C(=O)Cn1c(=O)oc2cc(S(=O)(=O)NCc3ccccc3)ccc21 | active: 18.4 µM |
| CC(=O)Nc1ccccc1C(=O)OCc1ccc(F)cc1 | inconclusive: 20.6 µM [activator, partial curve] |
| CP(=O)(Nc1ccc(Cl)cc1)c1nc2c(s1)CCCC2 (stereo not given) | inconclusive: 20.6 µM [falling, partial curve, poor fit] |
| OC1(c2ccc(F)cc2)CC2CCC(C1)N2Cc1nnnn1C1CCCCC1 (stereo not given) | inconclusive: 25.9 µM [falling, single point] |
| COc1ccc(-c2cc(=NCCCCCC(=O)O)c3cc(C)ccc3o2)cc1 | inconclusive: 16.4 µM [activator, single point] |
| COc1ccc(OC)c(N=Cc2c(O)n(Cc3ccccc3)c(=S)[nH]c2=O)c1 | inconclusive: 2.31 µM [falling, partial curve, poor fit] |
| N#CCCn1cc(C(=O)O)c(-c2cccc([N+](=O)[O-])c2)n1 | inconclusive: 5.8 µM [activator, partial curve, poor fit] |

| Compound | Potency |
| --- | --- |
| O=C1NC(=O)C(=Cc2ccc(Oc3ccc([N+](=O)[O-])cc3)cc2)C(=O)N1 | inactive |
| O=c1cccc2n1CC1CC2CN(Cc2ccc3c(c2)OCO3)C1 (stereo not given) | inconclusive: 10.3 µM [falling, single point] |
| COC(=O)C12OCC34C(CC5C(C)=C(O)C(=O)CC5(C)C3C(O)C1O)OC(=O)C(OC(=O)/C=C(\C)C(C)C)C24 (stereo not given) | active: 0.058 µM |
| CN1CC(C(=O)c2ccc(Cl)cc2)C(c2ccc(Cl)cc2Cl)C1 (stereo not given) | inactive |
| COc1ccc(OC)c(CCNCc2c(C(=O)O)c(C)n(Cc3ccc(F)cc3Cl)c2C)c1 | inactive |
| Cc1ncc(CN2CCCC(C(=O)c3ccc(C(C)(C)C)cc3)C2)s1 (stereo not given) | inconclusive: 14.6 µM [falling, partial curve] |
| CN(C)c1ccc2c(c1)N=C(c1ccco1)OP2(=S)N1CCOCC1 (stereo not given) | inconclusive: 29.1 µM [activator, single point] |
| CN1CC=C(c2c[nH]c3ccccc23)CC1 | active: 1.84 µM |
| CC(C)COC(=O)n1c(=O)oc2cc(S(=O)(=O)N3CCCCC3)ccc21 | inconclusive: 32.6 µM [falling, single point] |
| COc1ccc(-c2cc(-c3ccccc3)[n+](C)c(-c3ccccc3)c2)cc1 | inconclusive: 23.1 µM [falling, single point] |
| COc1ccc(C(CC(=O)Nc2ccccn2)N2Cc3ccccc3C2=O)cc1 (stereo not given) | inconclusive: 25.9 µM [activator, single point] |
| CCN(CC)c1nc(N)nc(NS(=O)(=O)c2ccc(Cl)cc2)n1 | inconclusive: 5.17 µM [falling, partial curve, poor fit] |
| Cc1ccc2c(c1)CNc1ccccc1O2 | inconclusive: 2.59 µM [activator, partial curve] |
| CC(C)CC1C(=O)N2CCC[C@H]2[C@]2(O)O[C@](NC(=O)[C@@H]3C=C4c5cccc6[nH]c(Br)c(c56)C[C@H]4N(C)C3)(C(C)C)C(=O)N12 (stereo not given in full) | active: 16.4 µM |
| O=C(c1ccc(CNS(=O)(=O)c2ccc(Br)cc2)cc1)N1CCC2(CC1)OCCO2 | inconclusive: 25.9 µM [falling, partial curve, poor fit] |
| O=[N+]([O-])c1cccc(CN2CCN(Cc3ccc(Cl)cc3)CC2)c1 | inconclusive: 29.1 µM [falling, single point] |
| CN(C)c1nc(OCc2ccccc2)c2ncc(=O)[nH]c2n1 | inconclusive: 29.1 µM [falling, single point] |
| CCCCCn1c(NC(=O)c2ccco2)c(C(=O)OCC)c2nc3ccccc3nc21 | inconclusive: 29.1 µM [falling, single point] |
| Cc1cc(OCC(=O)NCC(O)c2ccccc2)c2c3c(c(=O)oc2c1)CCCC3 (stereo not given) | inconclusive: 29.1 µM [falling, single point] |
| COC(=O)C1=C(c2cccc(OCc3ccccc3)c2)C[C@@H]2CC[C@H]1N2C(=O)NCc1ccc(N(C)C)cc1 | inconclusive: 20.6 µM [falling, single point] |
| COc1ccc(C2CC(=O)Oc3c2c(=O)oc2ccccc32)c(OC)c1OC (stereo not given) | inactive |
| CSc1nc(N)c(N=Nc2ccc([As](=O)(O)O)cc2)c(=O)[nH]1 | inactive |

| Compound | Potency |
| --- | --- |
| CC1CCN(C(CC(=O)c2ccccc2)C(=O)c2ccccc2)CC1 (stereo not given) | inconclusive: 6.51 µM [activator, partial curve] |
| O=C(CN1CCOCC1)c1ccc(Br)cc1 | inactive |
| CNC(=O)Oc1ccc(-c2cn3cc(Cl)ccc3n2)cc1 | inconclusive: 16.4 µM [falling, single point] |
| COc1ccc(NC(=O)N2C[C@@H]3C[C@@H](C2)c2cccc(=O)n2C3)c(OC)c1 | inactive |
| COc1ccc(CN2CCN(C(=O)Cc3ccccc3)CC2)cc1Br | inconclusive: 14.6 µM [falling, single point] |
| COC1CCC(OC2CC(C3(C)CCC4(CC(O)C(C)C(C(C)/C=C(\C)C(=O)C(C)CC(C)C(=O)O)O4)O3)OC3(OC(C4OC(O)(CO)C(C)CC4C)CC3C)C2C)OC1C (stereo not given) | active: 0.411 µM |
| CC12CCC(=O)C=C1CCC1C2CCC2(C)C1CCC2(O)CC#N (stereo not given) | inactive |
| CN1CC(Br)C(=O)NC1=O (stereo not given) | inconclusive: 7.31 µM [activator, partial curve, poor fit] |
| CCCCCCCCCCCCCCCC[N+](C)(C)C | inconclusive: 29.1 µM [falling, partial curve, poor fit] |
| O=c1c2ccccc2nc(Cc2ccccc2)n1-c1ccccc1O | inactive |
| CCCOC1CCCN(C(=O)CCc2nnc(Cc3cccc(C)c3)o2)C1 (stereo not given) | inconclusive: 11.6 µM [activator, partial curve] |
| CCN(CC)C(=O)c1ccc(NC(=S)NC(=O)CCc2ccccc2)cc1 | inconclusive: 20.6 µM [falling, single point] |
| FC(F)(F)c1ccc2c(c1)nnn2C1CCN(Cc2nnnn2Cc2ccccc2)CC1 | inconclusive: 5.8 µM [falling, partial curve] |
| CCn1c(O)c(/C=N/NC(=O)c2ccncc2)c(=O)n(CC)c1=S | inconclusive: 2.91 µM [activator, full curve] |
| N[C@H](CO)Cc1ccccc1 | inactive |
| CN(C)c1ccc(N=Cc2c(O)n(CCC3=CCCCC3)c(=O)[nH]c2=O)cc1 | inconclusive: 0.231 µM [falling, partial curve, poor fit] |
| COc1ccc(C(=O)N/N=C/C23CC[C@@H](O)CC2(O)CC[C@@H]2[C@@H]3CCC3(C)C(C4=CC(=O)OC4)CCC23O)cc1 (stereo not given in full) | inconclusive: 29.1 µM [falling, single point] |
| Clc1ccc(COC(Cn2ccnc2)c2ccc(Cl)cc2Cl)cc1 (stereo not given) | inconclusive: 29.1 µM [falling, single point] |
| O=C(COC(=O)c1cccc(NC(=O)c2ccc(Br)cc2)c1)c1ccc(Br)cc1 | inconclusive: 6.51 µM [activator, partial curve] |
| c1ccc2c(CN3CCCCCCC3)c[nH]c2c1 | inactive |
| Cc1cc(C)cc(OCCOc2cccc(C=C3C(=O)NC(=O)NC3=O)c2)c1 | inactive |

Among those listed so far, these contain a COOH group:

| Compound | Potency |
| --- | --- |
| O=C(O)/C=C/c1cccc(B(O)O)c1 | inconclusive: 18.4 µM [activator, partial curve] |
| COc1ccc(-c2cc(=NCCC(=O)O)c3cc(C)ccc3o2)cc1 | inconclusive: 9.2 µM [activator, partial curve] |
| COc1ccc(-c2cc(=NCCCCCC(=O)O)c3cc(C)ccc3o2)cc1 | inconclusive: 16.4 µM [activator, single point] |
| N#CCCn1cc(C(=O)O)c(-c2cccc([N+](=O)[O-])c2)n1 | inconclusive: 5.8 µM [activator, partial curve, poor fit] |
| COc1ccc(OC)c(CCNCc2c(C(=O)O)c(C)n(Cc3ccc(F)cc3Cl)c2C)c1 | inactive |
| COC1CCC(OC2CC(C3(C)CCC4(CC(O)C(C)C(C(C)/C=C(\C)C(=O)C(C)CC(C)C(=O)O)O4)O3)OC3(OC(C4OC(O)(CO)C(C)CC4C)CC3C)C2C)OC1C (stereo not given) | active: 0.411 µM |
